Primary screen of a compound library

Chains of the proteins cited; added tags and fusions are not shown.
UniProt E9BF75, entry or part of it: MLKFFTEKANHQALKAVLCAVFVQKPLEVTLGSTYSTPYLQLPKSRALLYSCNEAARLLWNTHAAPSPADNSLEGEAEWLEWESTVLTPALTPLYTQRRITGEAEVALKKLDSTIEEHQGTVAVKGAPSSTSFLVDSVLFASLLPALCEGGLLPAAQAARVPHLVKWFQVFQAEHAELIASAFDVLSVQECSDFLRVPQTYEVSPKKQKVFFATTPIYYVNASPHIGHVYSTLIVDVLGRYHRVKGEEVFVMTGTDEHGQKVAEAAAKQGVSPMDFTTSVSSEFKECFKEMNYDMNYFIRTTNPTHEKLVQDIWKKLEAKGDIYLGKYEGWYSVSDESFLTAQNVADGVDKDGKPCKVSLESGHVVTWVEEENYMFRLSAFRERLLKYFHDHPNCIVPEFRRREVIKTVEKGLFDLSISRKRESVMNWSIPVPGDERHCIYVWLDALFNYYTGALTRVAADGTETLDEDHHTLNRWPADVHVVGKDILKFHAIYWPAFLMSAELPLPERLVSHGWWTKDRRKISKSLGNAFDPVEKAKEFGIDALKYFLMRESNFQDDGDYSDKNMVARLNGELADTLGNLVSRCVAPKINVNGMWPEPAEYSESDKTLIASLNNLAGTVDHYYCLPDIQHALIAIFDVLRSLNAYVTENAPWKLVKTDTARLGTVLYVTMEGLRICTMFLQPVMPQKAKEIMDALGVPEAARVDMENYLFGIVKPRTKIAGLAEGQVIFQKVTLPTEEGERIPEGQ

From ChEMBL document CHEMBL3988442, “University of Dundee, Small-Polar-MMV Screening Library” (2021).

LdMetRS: 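Primary screen of methionyl-tRNA synthetase; the read-out is not stated. Target: Methionyl-tRNA synthetase (putative), Leishmania donovani (UniProt E9BF75). The test concentration is not given. Values are per cent inhibition. Size under these conditions: about 68,000 compounds, about 24 of them at 50% or above in at least one test.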
Mtb heat-shock: 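Assay on Mycobacterium tuberculosis, filed only as a heat shock assay from Cornell; the read-out is not stated. The concentration is filed as 10 mM, unlikely as a test dose, so the dose is not known. The record gives no direction; compounds that gave an IC50 in retests scored well above the rest, so higher reads as stronger inhibition. Of about 69,000 compounds tested this way, about 930 (1.4%) reached 50% or more in at least one test.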

All values are in %.
How 0% and 100% were set is not recorded. Most values in the screen are low, and negative values occur.
The compounds are a random part of those screened.
A dash means the value is not listed here; it may have been measured.

Compound,LdMetRS,Mtb heat-shock
COc1ccc(-c2noc(C3=NN(C)C(=O)CC3)n2)cc1OC,10.94,9.528
CN1CCCC1c1cncc(C(=O)NCC2CC2)n1 (stereo not shown),4.255,-2.17
CN(CC(=O)Nc1nc2c(s1)CCCCCC2)C(=O)c1ccco1,3.147,-4.068
O=C(O)C(F)(F)F.O=C1COC2(CCN(Cc3nccs3)CC2)CN1CC1CC1,-,-4.645
Cc1nccc(C2CN(Cc3cc[nH]n3)CCO2)n1 (stereo not shown),10.62,-9.59
O=C(NCCO)C1CN(c2cncnc2)CCO1 (stereo not shown),13.5,-12.49
O=C(NCCNc1ncccn1)C1CC(=O)N(CC2CC2)C1 (stereo not shown),4.601,-25.38
Cc1ccc(C(=O)N2C[C@@H](OCc3cccnc3)[C@H]3OCCC[C@@H]32)o1,8.75,-
O=C(O)C(F)(F)F.O=C(O)C(F)(F)F.O=C(O)C(F)(F)F.[H][C@@]12CCCO[C@]1([H])[C@H](N(C)Cc1ccco1)CN2Cc1cccnc1,-,5.006
COc1cccc(CN(C)Cc2ccccc2C#N)c1OC,-,-6.46
NC(=O)COc1ccc(CNCc2ccc(F)cc2F)cc1,17.7,-
O=C(CC1CC1)N[C@@H]1CN(c2ncccn2)C[C@@H]2CCCO[C@@H]21,3.704,-
Cl.O=C(CCC1CCCC1)N1CCCC(c2ncc3c(n2)CCNC3)C1 (stereo not shown),-,-5.492
Cc1cc(C(=O)O)ccc1NS(=O)(=O)c1c(C)nn(C(C)C)c1C,16.67,14.49
CC(C(=O)NCc1ccc(N2CCCCC2)nc1)n1cncn1 (stereo not shown),24.44,-5.519
CN(C)c1ccc(NC(=O)NCC2CCOC2)cn1 (stereo not shown),19.2,74.68
Cn1cc(NC(=O)NCc2ccoc2)ccc1=O,16.67,27.46
COCCC(=O)N1CCC2(COCc3cnc(N(C)C)nc32)C1 (stereo not shown),16.92,-6.075
O=C(CC1CCCO1)NCCc1ccccc1Br (stereo not shown),0.5495,4.851
COCCN1CCC2(CC1)CC(N1CCOCC1)c1cc(C)ccc12 (stereo not shown),7.283,-
CC(=O)c1cccc(S(=O)(=O)N2CCC(c3noc(C)n3)CC2)c1,24.06,-10.65
Cc1cc2cccc(NC(=O)N3CC[C@@H]4CC[C@H](C3)N4C)c2o1,5.789,-
CCCc1n[nH]c(C2CN(Cc3nnc(C4CC4)o3)CCO2)n1 (stereo not shown),5.164,-5.866
CCCn1nccc1C(=O)N1CCCC(C(=O)CCc2ccccc2)C1 (stereo not shown),18.44,-7.875
CC(C)Cc1cc(CNC(=O)c2cccc3c2NCCC3)no1,9.059,-1.106
CCc1nc(C(=O)N2CC(C)CN(C)c3ccccc32)c[nH]1 (stereo not shown),17.61,-22.35
Cc1nc(C(C)C)cc(N2CCC3(CCC(=O)N(CC4CC4)C3)CC2)n1,10.68,19.04
CCc1[nH]ncc1C(=O)N1CCCC(n2cncn2)C1 (stereo not shown),12.05,-8.837
COc1ccc(OC)c(CNC2CCCN(c3cccnn3)C2)c1 (stereo not shown),13.4,3.5
O=C1C[C@@H]2[C@H](CCN2Cc2ccco2)N1c1ccsc1,2.618,-
Cc1ccc(CN(Cc2c[nH]cn2)C2CC(C)(C)NC(C)(C)C2)o1,10.62,-
Cc1csc(CN2C[C@@H]3CN(CC4CCOCC4)CCO[C@@H]3C2)n1,18.49,-
O=S(=O)(Nc1ccon1)c1cc(Cl)cc2c1OCC2,10.87,25.18
Cc1cc(C)cc(OCCNC(=O)C(C)Sc2nncn2C)c1 (stereo not shown),6.267,13.27
COc1ccc(C(=O)N2CCC(c3nccn3C(C)C)CC2)cc1OC,11.37,-10.42
CNC(=O)NC(=O)CN1CCN(CC2CC2)c2ccccc21,21.77,34.37
Cc1cc(CN(C)C(=O)C2CCCN(C(=O)c3ccc(Cl)cc3)C2)no1 (stereo not shown),11.81,-21.08
[H][C@]12CC[C@]([H])(CN(Cc3cc(-c4ccccc4)no3)C1)N(CC1CC1)C2,-,99.84
CCN(CC)c1ccc(C(=O)NCC2(C(N)=O)CCOCC2)cn1,7.258,-13.31
COCCN1CCC(NC(=O)Cn2cc(C)c3ccccc32)CC1,9.363,-8.401
CC1COCCN1C(=O)Nc1cnc2c(cnn2C(C)C)c1 (stereo not shown),23.46,-3.235
OC(CN1CCOCC1)c1cc(Cl)ccc1Cl (stereo not shown),2.419,-23.7
CC(C)c1nc(CN(C)C2CCN(CCNS(C)(=O)=O)C2)no1 (stereo not shown),1.045,-6.038
CC1CCCCN1C(=O)CCn1cnc2sccc2c1=O (stereo not shown),15.65,-5.632
O=C(O)C(F)(F)F.[H][C@@]12CCN(Cc3c(C)noc3C)C[C@@]1([H])[C@H](C(=O)NCC1CC1)CCO2,-,23.85
COc1ccc2c3c1CN(C(C)=O)CC3=CC(C)(C)CO2,13.42,26.22
Fc1cnc(N2CC[C@@H]3O[C@@H](COCc4cccnc4)CC[C@@H]32)nc1,15.33,-
O=C(O)C(F)(F)F.[H][C@@]12CN(CC3CC3)C[C@]1([H])C(=O)N(c1ccsc1)C2,-,20.81
Cc1cnc(C(=O)Nc2cc(F)ccc2OCC2CCCO2)cn1 (stereo not shown),9.966,5.009
Cc1cc(C[C@@H]2CCC[C@H]2NCc2cc(F)ccc2F)on1.O=C(O)CC(O)(CC(=O)O)C(=O)O,-,-16.01
CN(C)C(=O)N1CCC2(CCC(C(=O)N3CCCC3)O2)CC1 (stereo not shown),9.444,0.2896
[H][C@@]12CN(C3CCN(CC)CC3)C[C@]1([H])N(CCc1cccc(Cl)c1)C(=O)O2,-,-13.3
Cc1ccc(O)c(C(=O)N2CCCC2CC(=O)c2cnn(C)c2)c1 (stereo not shown),3.237,-4.155
COCCN(Cc1ccccc1)c1cc(C)ncn1,11.35,-17.8
O=C([C@H]1CCCO1)N1CC[C@H](O)[C@@H]1Cc1ccncc1,16.67,-
COc1ccc(OC)c(C(O)CNC(=O)Nc2ccc(F)cc2F)c1 (stereo not shown),8.547,-10.96
O=C(c1cccc2cccnc12)N1CC[C@@]2(CCCO2)[C@@H](O)C1,5.806,50.53
Cc1nc(CN2CCOC(CNc3cccnn3)C2)oc1C (stereo not shown),0.6536,0.8577
COc1cccc(CC(=O)NC2CCCc3cn[nH]c32)c1 (stereo not shown),17.49,23.02
CCn1ccc(-c2cc(NCCCOc3cccc(C)c3)nc(C)n2)n1,18.99,104.2
Cc1cccc(C(=O)NC2CCN(c3cnn(C)c3)C2=O)c1C (stereo not shown),6.406,5.643
Cc1nnc([C@H]2C[C@@H]3CCN(Cc4ccc(C)o4)C[C@H]3O2)[nH]1,2.5,-
Clc1cc(Cl)cc(CN2CCC(NCc3ncc[nH]3)CC2)c1,16.76,26.86
Cc1cccc(CNc2ccc(C(=O)N3CCC(CO)CC3)cc2)c1,16.8,0.3088
CC(C)(O)CCc1cccc(C(=O)NCc2nccs2)c1,3.484,6.702
CCCn1ncc2c(C(=O)Nc3n[nH]c(SC)n3)cc(C3CC3)nc21,14.34,2.992
COC[C@@H]1CCC[C@@]12CN(Cc1ccc(C)s1)CCO2.O=C(O)C(F)(F)F,-,-18.91
[H][C@@]12CCN(C(C)=O)C[C@]1([H])CCN(C1CC1)C(=O)C2,-,-37.76
Cc1nc(CN2CCC3(CCN(Cc4cnn(C)c4)C3)C2=O)cs1 (stereo not shown),1.918,-22.2
CC[C@H](C)[C@@H](CO)NC(C)Cc1ccccc1F (stereo partly shown),19,-8.755
O=C(c1ccc(-c2ccc(O)nc2)s1)N1CCSCC1,11.81,4.648
Cc1ncsc1CCN(C)Cc1ccc(Br)o1,6.272,-9.038
O=C(O)C(F)(F)F.[H][C@@]12CN(CC3CC3)CCO[C@]1([H])CN(C(=O)c1cocn1)C2,-,-14.98
COc1cccc(CC(=O)N2CCN(C)c3ncccc3C2)c1,12.37,-
O=C(c1ccc2ncsc2c1)N1CCC(C(=O)O)(n2cccn2)CC1,5.344,9.408
Oc1cc(CC2COCCN(CC3(O)CCOCC3)C2)ncn1 (stereo not shown),-1.899,-1.879
O=C(O)C(F)(F)F.O=C(O)c1c(-c2ccoc2)ncc2c1CCN(C1CCOC1)C2 (stereo not shown),-,-8.735

Some entries from above, unchanged:

Compound,LdMetRS,Mtb heat-shock
OC(CN1CCOCC1)c1cc(Cl)ccc1Cl (stereo not shown),2.419,-23.7
COc1ccc(OC)c(C(O)CNC(=O)Nc2ccc(F)cc2F)c1 (stereo not shown),8.547,-10.96
NC(=O)COc1ccc(CNCc2ccc(F)cc2F)cc1,17.7,-
Cc1nc(C(C)C)cc(N2CCC3(CCC(=O)N(CC4CC4)C3)CC2)n1,10.68,19.04
O=S(=O)(Nc1ccon1)c1cc(Cl)cc2c1OCC2,10.87,25.18
Cc1ccc(O)c(C(=O)N2CCCC2CC(=O)c2cnn(C)c2)c1 (stereo not shown),3.237,-4.155